Measured values taken from the supplement of paper PMC12823440, “Inhibitors supercharge kinase turnover through native proteolytic circuits” (Nature, 2025).
Where a name gives a salt, the structure may show the parent alone. The list shows a part of the results. The calls rarely recur for the same compound in another form.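 In K562 cells expressing nanoluciferase-fused kinases, luminescence was recorded at 4 h intervals between 2 and 18 h, normalized as percent of control with DMSO at 100% and a positive control at 0%. A significant (2 sigma) signal drop marks a time point as decreased. The authors' rule for a hit is not shown and takes in more than the number of time points.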

By UniProt entry, the sequences of proteins in these tests, tags left out. Where a name states a change or a piece, a line headed by the entry shows the natural chain unless it says otherwise.
UniProt P29317, whole entry: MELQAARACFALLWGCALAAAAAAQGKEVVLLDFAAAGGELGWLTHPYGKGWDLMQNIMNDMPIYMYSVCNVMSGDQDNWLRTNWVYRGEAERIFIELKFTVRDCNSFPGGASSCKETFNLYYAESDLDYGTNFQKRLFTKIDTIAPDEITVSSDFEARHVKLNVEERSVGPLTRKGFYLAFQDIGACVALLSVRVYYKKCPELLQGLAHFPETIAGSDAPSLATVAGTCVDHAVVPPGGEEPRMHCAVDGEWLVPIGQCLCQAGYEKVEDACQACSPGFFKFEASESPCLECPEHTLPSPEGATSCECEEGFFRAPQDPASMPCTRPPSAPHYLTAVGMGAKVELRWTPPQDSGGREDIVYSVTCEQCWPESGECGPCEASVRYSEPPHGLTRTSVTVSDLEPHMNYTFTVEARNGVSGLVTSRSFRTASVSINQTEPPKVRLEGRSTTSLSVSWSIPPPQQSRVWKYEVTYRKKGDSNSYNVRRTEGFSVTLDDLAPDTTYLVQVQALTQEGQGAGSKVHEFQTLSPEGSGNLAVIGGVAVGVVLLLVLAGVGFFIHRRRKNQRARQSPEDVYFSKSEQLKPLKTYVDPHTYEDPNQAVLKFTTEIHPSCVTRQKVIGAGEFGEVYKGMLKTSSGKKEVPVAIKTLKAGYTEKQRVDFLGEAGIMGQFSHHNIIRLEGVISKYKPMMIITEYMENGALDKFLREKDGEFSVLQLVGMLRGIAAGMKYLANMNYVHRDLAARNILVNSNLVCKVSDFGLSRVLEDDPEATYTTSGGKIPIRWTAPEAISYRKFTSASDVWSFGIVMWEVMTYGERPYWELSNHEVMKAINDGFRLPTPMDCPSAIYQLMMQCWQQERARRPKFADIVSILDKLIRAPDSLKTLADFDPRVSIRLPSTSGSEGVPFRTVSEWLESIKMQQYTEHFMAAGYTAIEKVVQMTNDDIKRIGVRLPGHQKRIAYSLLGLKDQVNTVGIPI
UniProt P21802, whole entry, looked up: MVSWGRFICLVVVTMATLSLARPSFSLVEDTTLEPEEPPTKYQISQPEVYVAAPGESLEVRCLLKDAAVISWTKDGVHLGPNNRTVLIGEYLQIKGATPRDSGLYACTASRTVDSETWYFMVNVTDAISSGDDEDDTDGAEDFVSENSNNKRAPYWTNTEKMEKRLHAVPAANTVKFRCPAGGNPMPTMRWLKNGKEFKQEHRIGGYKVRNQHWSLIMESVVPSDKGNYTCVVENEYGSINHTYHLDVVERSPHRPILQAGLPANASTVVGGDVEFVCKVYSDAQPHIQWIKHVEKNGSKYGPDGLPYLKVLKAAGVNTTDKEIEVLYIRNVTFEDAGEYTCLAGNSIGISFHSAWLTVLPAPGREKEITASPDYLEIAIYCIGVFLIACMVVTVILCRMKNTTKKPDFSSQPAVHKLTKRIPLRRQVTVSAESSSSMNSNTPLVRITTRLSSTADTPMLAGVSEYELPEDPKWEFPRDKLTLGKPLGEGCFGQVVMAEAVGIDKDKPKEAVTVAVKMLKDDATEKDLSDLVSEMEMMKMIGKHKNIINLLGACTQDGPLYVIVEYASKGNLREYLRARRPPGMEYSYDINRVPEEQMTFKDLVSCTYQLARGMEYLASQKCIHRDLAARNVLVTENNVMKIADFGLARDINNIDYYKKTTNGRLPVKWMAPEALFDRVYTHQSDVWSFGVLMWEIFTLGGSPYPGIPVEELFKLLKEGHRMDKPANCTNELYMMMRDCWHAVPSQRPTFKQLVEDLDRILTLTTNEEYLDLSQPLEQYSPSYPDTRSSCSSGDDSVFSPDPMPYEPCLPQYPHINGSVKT
UniProt P22607, whole entry, looked up: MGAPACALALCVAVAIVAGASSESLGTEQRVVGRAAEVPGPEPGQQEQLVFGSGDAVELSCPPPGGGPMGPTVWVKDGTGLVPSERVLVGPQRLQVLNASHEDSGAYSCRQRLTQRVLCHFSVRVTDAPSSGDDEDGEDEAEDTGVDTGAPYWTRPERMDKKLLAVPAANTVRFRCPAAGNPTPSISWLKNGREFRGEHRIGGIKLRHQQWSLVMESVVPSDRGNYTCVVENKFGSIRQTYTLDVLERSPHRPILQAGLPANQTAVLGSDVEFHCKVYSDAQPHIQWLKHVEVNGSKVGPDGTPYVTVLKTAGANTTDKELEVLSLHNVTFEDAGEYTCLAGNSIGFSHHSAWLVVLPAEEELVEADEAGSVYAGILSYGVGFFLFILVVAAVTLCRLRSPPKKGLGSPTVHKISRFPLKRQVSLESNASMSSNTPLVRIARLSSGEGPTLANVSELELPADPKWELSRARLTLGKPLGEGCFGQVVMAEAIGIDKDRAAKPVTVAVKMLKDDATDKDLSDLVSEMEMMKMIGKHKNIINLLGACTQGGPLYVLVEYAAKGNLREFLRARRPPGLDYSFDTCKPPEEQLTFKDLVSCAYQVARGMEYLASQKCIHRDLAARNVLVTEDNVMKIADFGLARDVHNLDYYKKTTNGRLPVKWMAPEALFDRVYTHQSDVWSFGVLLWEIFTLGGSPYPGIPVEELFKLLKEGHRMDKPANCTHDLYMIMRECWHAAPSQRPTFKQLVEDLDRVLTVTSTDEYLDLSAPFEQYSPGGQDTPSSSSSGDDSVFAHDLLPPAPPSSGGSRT
UniProt P36888, whole entry: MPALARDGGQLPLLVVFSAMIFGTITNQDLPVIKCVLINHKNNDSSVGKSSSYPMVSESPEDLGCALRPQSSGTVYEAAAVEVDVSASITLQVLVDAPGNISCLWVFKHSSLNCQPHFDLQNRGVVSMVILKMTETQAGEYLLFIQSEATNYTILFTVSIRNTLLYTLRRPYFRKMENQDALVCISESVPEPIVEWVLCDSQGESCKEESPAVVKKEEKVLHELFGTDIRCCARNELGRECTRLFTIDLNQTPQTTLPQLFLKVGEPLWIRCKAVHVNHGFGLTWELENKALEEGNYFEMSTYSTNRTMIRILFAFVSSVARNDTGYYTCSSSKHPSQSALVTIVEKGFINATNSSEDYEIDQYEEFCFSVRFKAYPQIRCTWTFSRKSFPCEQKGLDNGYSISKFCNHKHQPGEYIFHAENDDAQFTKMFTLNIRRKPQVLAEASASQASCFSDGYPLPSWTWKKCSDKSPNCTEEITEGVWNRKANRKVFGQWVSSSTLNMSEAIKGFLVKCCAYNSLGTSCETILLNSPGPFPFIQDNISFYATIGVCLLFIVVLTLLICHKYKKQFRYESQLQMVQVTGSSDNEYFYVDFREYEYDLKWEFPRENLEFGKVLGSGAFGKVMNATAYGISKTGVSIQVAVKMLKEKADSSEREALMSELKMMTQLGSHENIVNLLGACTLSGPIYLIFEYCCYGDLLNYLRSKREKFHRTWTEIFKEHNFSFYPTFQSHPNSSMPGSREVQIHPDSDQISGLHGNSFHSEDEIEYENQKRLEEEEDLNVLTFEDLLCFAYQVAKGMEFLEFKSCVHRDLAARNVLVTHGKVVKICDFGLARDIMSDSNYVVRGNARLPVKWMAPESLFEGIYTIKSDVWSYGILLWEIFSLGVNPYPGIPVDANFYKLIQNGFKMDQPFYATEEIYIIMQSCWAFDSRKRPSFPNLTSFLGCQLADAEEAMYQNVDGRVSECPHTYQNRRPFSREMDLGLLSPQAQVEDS
UniProt P49840: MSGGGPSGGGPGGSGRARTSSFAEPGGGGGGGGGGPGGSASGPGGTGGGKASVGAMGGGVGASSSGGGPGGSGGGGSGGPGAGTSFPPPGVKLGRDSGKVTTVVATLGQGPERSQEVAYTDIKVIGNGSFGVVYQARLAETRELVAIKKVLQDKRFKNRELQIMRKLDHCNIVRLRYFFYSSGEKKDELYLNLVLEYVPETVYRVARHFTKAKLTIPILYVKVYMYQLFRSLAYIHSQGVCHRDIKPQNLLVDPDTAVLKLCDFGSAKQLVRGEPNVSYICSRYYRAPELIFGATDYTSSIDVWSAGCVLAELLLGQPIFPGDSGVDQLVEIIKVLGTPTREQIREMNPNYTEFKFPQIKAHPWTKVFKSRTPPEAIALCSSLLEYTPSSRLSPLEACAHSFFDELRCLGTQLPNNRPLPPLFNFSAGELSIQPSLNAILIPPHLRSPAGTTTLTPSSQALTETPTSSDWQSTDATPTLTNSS
UniProt P23458: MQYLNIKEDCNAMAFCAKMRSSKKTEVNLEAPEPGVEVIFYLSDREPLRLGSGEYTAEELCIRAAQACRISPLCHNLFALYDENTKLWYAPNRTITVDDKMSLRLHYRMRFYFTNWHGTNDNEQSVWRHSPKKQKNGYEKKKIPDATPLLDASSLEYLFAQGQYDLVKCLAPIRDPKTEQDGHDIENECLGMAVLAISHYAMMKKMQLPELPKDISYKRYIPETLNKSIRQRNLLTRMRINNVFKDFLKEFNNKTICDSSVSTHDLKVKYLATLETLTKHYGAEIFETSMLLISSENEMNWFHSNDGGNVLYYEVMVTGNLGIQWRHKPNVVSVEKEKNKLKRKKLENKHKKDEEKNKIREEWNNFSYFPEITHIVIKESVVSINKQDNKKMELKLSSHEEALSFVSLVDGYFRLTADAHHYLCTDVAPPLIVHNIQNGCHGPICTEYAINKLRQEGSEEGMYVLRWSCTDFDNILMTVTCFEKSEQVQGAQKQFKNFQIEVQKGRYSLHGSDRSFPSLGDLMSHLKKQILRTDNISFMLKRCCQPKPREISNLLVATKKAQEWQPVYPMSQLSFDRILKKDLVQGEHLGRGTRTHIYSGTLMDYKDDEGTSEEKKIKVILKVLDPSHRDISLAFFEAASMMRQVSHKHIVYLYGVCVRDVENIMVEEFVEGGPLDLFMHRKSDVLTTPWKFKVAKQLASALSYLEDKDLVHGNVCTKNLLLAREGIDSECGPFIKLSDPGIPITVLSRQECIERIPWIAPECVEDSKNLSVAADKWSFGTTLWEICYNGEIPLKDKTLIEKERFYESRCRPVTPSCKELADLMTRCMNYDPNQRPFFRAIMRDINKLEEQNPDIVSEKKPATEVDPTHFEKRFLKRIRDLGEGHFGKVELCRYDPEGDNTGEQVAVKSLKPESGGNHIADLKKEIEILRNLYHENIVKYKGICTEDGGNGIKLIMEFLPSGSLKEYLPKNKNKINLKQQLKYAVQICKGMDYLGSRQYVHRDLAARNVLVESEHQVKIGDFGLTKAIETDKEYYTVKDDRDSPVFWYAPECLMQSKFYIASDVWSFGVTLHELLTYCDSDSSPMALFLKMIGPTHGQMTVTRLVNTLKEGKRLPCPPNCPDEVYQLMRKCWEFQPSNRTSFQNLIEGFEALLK
UniProt P53667: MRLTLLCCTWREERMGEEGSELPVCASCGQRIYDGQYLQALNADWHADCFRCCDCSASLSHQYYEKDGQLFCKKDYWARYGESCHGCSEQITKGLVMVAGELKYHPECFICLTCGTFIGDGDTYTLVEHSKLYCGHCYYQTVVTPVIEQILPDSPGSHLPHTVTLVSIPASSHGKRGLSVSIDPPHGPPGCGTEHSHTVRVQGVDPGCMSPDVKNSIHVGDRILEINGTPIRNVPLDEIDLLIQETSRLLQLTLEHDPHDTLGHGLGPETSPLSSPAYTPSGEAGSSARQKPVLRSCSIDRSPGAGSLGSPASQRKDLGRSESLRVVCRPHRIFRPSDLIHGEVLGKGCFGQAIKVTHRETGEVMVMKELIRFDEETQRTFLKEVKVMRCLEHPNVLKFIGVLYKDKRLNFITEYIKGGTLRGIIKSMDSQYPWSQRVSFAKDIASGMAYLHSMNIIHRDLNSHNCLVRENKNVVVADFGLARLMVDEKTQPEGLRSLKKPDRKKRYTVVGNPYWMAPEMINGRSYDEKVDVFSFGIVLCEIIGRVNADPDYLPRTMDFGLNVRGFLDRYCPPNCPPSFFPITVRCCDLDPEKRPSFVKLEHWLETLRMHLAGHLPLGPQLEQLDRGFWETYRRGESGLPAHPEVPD
UniProt P53671: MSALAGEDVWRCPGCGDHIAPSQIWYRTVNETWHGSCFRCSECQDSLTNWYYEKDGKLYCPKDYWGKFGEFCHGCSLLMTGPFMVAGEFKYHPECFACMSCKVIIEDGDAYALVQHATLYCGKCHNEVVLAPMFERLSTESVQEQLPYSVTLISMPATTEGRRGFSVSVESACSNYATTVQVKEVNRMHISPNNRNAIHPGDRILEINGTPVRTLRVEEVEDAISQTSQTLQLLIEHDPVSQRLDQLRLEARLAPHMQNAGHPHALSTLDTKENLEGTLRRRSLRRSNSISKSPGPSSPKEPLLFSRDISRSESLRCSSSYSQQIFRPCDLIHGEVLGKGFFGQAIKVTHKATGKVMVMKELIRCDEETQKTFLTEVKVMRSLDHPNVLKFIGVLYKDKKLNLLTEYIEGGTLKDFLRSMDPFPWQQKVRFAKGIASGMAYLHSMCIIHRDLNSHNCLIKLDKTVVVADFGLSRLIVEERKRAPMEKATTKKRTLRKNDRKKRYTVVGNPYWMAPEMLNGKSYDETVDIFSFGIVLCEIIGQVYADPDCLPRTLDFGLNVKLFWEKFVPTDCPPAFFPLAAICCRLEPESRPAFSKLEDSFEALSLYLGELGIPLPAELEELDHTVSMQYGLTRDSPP

How the values were obtained:
Test in all cases: number of time points (of 5) at which kinase-Nluc abundance scored as decreased, DMSO-normalised (count); higher = more persistent destabilization
Details in all cases: K562; 2-18 h
[1] = target: EGFR_L861Q (UniProt P00533)
[2] = target: EGFR_T790M (UniProt P00533)
[3] = target: EPHA2 (UniProt P29317)
[4] = target: ERBB3 (UniProt P21860)
[5] = target: ERBB4_R711C (clone: ERBB4_mut) (UniProt Q15303)
[6] = target: ERN1 (UniProt O75460)
[7] = target: FGFR1 (UniProt P11362)
[8] = target: FGFR2 (UniProt P21802)
[9] = target: FGFR3 (UniProt P22607)
[10] = target: FGR (UniProt P09769)
[11] = target: FLT3 (UniProt P36888)
[12] = target: FYN (UniProt P06241)
[13] = target: GSK3A (UniProt P49840)
[14] = target: HER2 (UniProt P04626)
[15] = target: INSRR (UniProt P14616)
[16] = target: IRAK3 (UniProt Q9Y616)
[17] = target: JAK1 (UniProt P23458)
[18] = target: LCK (UniProt P06239)
[19] = target: LIMK1 (UniProt P53667)
[20] = target: LIMK2 (UniProt P53671)

Measured: number of time points

C=C1C(=O)[C@@]23[C@H](O)C[C@@H]4C(C)(C)C(=O)CC[C@@]4(C)[C@@H]2CC[C@@H]1[C@H]3O [Glaucocalyxin A] (2.5 µM)
2: [5]
3: [12]
0: all other assays above

CC1(N)CCN(c2cccnc2NC(=O)c2nc(-c3ncccc3C(F)(F)F)cnc2N)CC1 [Darovasertib] (10 µM)
0: all assays above

C=CC(=O)N1CC[C@@H](Oc2nc(Nc3ccc(N4CCC(N5CCN(C)CC5)CC4)cc3)c(C(N)=O)nc2CC)C1 [Naquotinib (mesylate)] (2.5 µM)
1: [14]
0: all other assays above

CC(C)=CC[C@@H](O)C1=CC(=O)c2c(O)ccc(O)c2C1=O [Shikonin] (10 µM)
0: all assays above

COc1ccc2c3n(c(=NC(=O)c4cccnc4)nc2c1OC)CCN3 (2 µM)
0: all assays above

CO[C@H]1C[C@@H]2CC[C@@H](C)[C@@](O)(O2)C(=O)C(=O)N2CCCC[C@H]2C(=O)O[C@H]([C@H](C)C[C@@H]2CC[C@@H](OCCO)[C@H](OC)C2)CC(=O)[C@H](C)/C=C(\C)[C@@H](O)[C@@H](OC)C(=O)[C@H](C)C[C@H](C)/C=C/C=C/C=C/1C [Everolimus] (10 µM)
0: all assays above

CN1CCN(c2ccc(Nc3ncc4cc(C#N)c(=O)n(C5CCCC5)c4n3)cc2)CC1 (10 µM)
0: all assays above

CC(C)n1c([C@H](C)Nc2ncnc(N)c2C#N)cc2cccc(-c3ccc(=O)n(C)c3)c2c1=O (10 µM)
0: all assays above

Retrieved by compound from above, 2 records:
CN1CCN(c2ccc(Nc3ncc4cc(C#N)c(=O)n(C5CCCC5)c4n3)cc2)CC1 (10 µM)
0: all assays above

CO[C@H]1C[C@@H]2CC[C@@H](C)[C@@](O)(O2)C(=O)C(=O)N2CCCC[C@H]2C(=O)O[C@H]([C@H](C)C[C@@H]2CC[C@@H](OCCO)[C@H](OC)C2)CC(=O)[C@H](C)/C=C(\C)[C@@H](O)[C@@H](OC)C(=O)[C@H](C)C[C@H](C)/C=C/C=C/C=C/1C [Everolimus] (10 µM)
0: all assays above

Next part:

CNC(=O)c1ccc2c(c1)ncn2-c1ccc(CC(=O)OC(C)(C)C)cc1 (10 µM)
0: all assays above

Cc1cc(O)c2c(c1)C(=O)c1cccc(O)c1C2=O [Chrysophanol] (2 µM)
0: all assays above

COc1cc2cc(Oc3ccc4ccc(=O)oc4c3)c(=O)oc2cc1O [Daphnoretin] (10 µM)
0: all assays above

Cn1ncc(NC(=O)c2nc(-c3c(F)cccc3F)sc2N)c1N1CC[C@@H](N)[C@H](F)CC1 (10 µM)
0: all assays above

COc1ccc(Nc2ncc(C(F)(F)F)c(NC3CC3)n2)cc1OC (10 µM)
2: [4] | [5] | [14] | [15] | [17]
3: [8] | [12]
1: [9] | [16]
0: all other assays above

O=c1[nH]ccc2nc(-c3ccc(CN4CCC(c5nc(-c6ccccn6)n[nH]5)CC4)cc3)c(-c3ccccc3)cc12 (10 µM)
0: all assays above

COc1cc(N2CCOCC2)ccc1Nc1ncc(F)c(Nc2ccccc2NS(C)(=O)=O)n1 (10 µM)
0: all assays above

C=CC(=O)N1CCN(C(=O)CNc2cc(I)c(Cl)cc2O)CC1 [K-Ras(G12C) inhibitor 12] (10 µM)
0: all assays above

Nc1[nH]nc2nc(-c3ccc(NS(=O)(=O)c4cc(Cl)ccc4Cl)cc3)cnc12 (10 µM)
0: all assays above

CCNC(=O)C#Cc1ccc2c(C(=Nc3ccc(CN(C)C)cc3)c3ccccc3)c(O)[nH]c2c1 (2.5 µM)
3: [14]
0: all other assays above

Cc1cccc(COc2cccc(/C=C3\C(=O)NN(c4ccccc4)C3=O)c2)c1 (10 µM)
1: [14]
0: all other assays above

C=CC(=O)Nc1cc(Nc2nccc(-c3cn(C)c4ccccc34)n2)c(OC)cc1N(C)CCNC [AZ7550 Mesylate] (2.5 µM)
2: [4]
4: [14]
3: [19]
0: all other assays above

CCN(CC)CCCC(C)Nc1nc(C)cc(Nc2ccc3nc(C)cc(N)c3c2)n1 (stereo not given) (10 µM)
0: all assays above

O=C1CC[C@H](NC(=O)Cc2ccccc2)C(=O)N1 [Antineoplaston A10] (10 µM)
0: all assays above
